Laboratory results published in paper PMC4200280.

Chains of the proteins cited; added tags and fusions are not shown.
UniProt P15790: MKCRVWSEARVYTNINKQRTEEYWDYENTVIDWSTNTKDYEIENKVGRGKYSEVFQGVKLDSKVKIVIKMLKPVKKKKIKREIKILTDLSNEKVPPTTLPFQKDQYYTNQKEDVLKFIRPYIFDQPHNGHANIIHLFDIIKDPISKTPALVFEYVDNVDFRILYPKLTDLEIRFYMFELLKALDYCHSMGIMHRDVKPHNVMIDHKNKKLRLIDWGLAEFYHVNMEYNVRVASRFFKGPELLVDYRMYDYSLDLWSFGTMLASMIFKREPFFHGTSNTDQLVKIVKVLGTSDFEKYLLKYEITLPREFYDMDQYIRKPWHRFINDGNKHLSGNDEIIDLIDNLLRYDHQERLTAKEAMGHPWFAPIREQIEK

T1: Psh1-TAP (budding yeast) (UniProt Q12161)
T1 sequence: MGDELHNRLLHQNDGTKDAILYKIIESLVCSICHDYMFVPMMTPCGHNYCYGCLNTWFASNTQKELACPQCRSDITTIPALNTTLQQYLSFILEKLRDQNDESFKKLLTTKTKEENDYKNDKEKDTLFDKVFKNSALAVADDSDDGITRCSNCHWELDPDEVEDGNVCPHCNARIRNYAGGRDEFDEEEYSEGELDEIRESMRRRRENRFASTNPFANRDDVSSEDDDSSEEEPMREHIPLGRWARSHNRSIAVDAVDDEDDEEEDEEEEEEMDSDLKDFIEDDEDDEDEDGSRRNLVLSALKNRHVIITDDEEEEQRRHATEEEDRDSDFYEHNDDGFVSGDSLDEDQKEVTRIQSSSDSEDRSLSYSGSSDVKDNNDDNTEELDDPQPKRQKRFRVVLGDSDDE

T2: Dsn1-FLAG (budding yeast) (UniProt P40568)
T2 sequence: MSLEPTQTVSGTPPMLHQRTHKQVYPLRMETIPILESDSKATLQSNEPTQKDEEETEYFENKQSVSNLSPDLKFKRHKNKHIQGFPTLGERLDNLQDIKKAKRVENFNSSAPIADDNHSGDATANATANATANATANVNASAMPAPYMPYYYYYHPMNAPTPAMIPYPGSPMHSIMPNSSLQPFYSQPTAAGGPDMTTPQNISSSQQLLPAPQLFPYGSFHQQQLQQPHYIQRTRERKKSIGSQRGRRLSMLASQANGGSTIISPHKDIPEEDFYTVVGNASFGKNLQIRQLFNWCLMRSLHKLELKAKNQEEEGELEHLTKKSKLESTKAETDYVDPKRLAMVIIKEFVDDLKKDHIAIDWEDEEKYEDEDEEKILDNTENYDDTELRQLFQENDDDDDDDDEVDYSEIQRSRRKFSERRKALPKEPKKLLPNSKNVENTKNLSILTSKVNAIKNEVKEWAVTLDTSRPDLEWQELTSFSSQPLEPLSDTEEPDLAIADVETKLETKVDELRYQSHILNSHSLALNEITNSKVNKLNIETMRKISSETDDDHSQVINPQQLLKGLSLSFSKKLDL


Key:
Psh1-TAP (budding yeast) = molecular target: T1, Psh1-TAP (budding yeast); assay: affinity purification with mass spectrometry; Psh1-TAP affinity-purified from yeast (method adopted from Puig et al.), samples analysed by MS
[1] = molecular target: T2, Dsn1-FLAG (budding yeast); assay: affinity purification with mass spectrometry; kinetochore purification by Dsn1-FLAG from WT and cka2Δ yeast (protocol adopted from Akiyoshi et al.), MS analysis

binding (Psh1-TAP (budding yeast))	binding [1]	Molecule
binds		Cka2, catalytic subunit of casein kinase 2 (CK2) (enzyme, UniProt P19454 1-339) MPLPPSTLNQKSNRVYSVARVYKNACEERPQEYWDYEQGVTIDWGKISNYEIINKIGRGKYSEVFSGRCIVNNQKCVIKVLKPVKMKKIYRELKILTNLTGGPNVVGLYDIVQDADSKIPALIFEEIKNVDFRTLYPTFKLPDIQYYFTQLLIALDYCHSMGIMHRDVKPQNVMIDPTERKLRLIDWGLAEFYHPGVDYNVRVASRYHKGPELLVNLNQYDYSLDLWSVGCMLAAIVFKKEPFFKGSSNPDQLVKIATVLGTKELLGYLGKYGLHLPSEYDNIMRDFTKKSWTHFITSETKLAVPEVVDLIDNLLRYDHQERLTAKEAMDHKFFKTKFE
binds		Ckb2, regulatory subunit of casein kinase 2 (CK2) (protein, UniProt P38930 1-258) MGSRSENVGTVTREGSRVEQDDVLMDDDSDSSEYVDMWIDLFLGRKGHEYFCDVDPEYITDRFNLMNLQKTVSKFSYVVQYIVDDLDDSILENMTHARLEQLESDSRKLYGLIHARYIITIKGLQKMYAKYKEADFGRCPRVYCNLQQLLPVGLHDIPGIDCVKLYCPSCEDLYIPKSSRHSSIDGAYFGTSFPGMFLQAFPDMVPKHPTKRYVPKIFGFELHKQAQLTRWQELQRLKLVEKLESKDVDLTKSGGFKT

The remaining lines, values behind:

Molecule	binding (Psh1-TAP (budding yeast))	binding [1]
Cka1, catalytic subunit of casein kinase 2 (CK2) (from UniProt P15790 1-372) (enzyme)	binds	
Psh1 (centromere/kinetochore-associated, found in the Dsn1-FLAG purification) (enzyme, UniProt Q12161 1-406) MGDELHNRLLHQNDGTKDAILYKIIESLVCSICHDYMFVPMMTPCGHNYCYGCLNTWFASNTQKELACPQCRSDITTIPALNTTLQQYLSFILEKLRDQNDESFKKLLTTKTKEENDYKNDKEKDTLFDKVFKNSALAVADDSDDGITRCSNCHWELDPDEVEDGNVCPHCNARIRNYAGGRDEFDEEEYSEGELDEIRESMRRRRENRFASTNPFANRDDVSSEDDDSSEEEPMREHIPLGRWARSHNRSIAVDAVDDEDDEEEDEEEEEEMDSDLKDFIEDDEDDEDEDGSRRNLVLSALKNRHVIITDDEEEEQRRHATEEEDRDSDFYEHNDDGFVSGDSLDEDQKEVTRIQSSSDSEDRSLSYSGSSDVKDNNDDNTEELDDPQPKRQKRFRVVLGDSDDE		binds
Ckb1, regulatory subunit of casein kinase 2 (CK2) (protein, UniProt P43639 1-278) MSQEFVEDYSRTGSSDDEDSGAYDEWIPSFCSRFGHEYFCQVPTEFIEDDFNMTSLSQEVPHYRKALDLILDLEAMSDEEEDEDDVVEEDEVDQEMQSNDGHDEGKRRNKSPVVNKSIIEHAAEQLYGLIHARFILTKPGLQAMAEKFDHKEFGTCPRYYCNGMQLLPCGLSDTVGKHTVRLYCPSCQDLYLPQSSRFLCLEGAFWGTSFPGVFLKHFKELEEYVERKSKESYELKVFGFRINDEAVSGPRMKWLRQYPSTEEDWEEFAKCEFETPAV	binds	

No constants are given. Whether binding was seen depends on the method and setting. Binding seen in cells or lysates may run through a third protein. A yes stands for co-enrichment or nearness to the bait. Other partners may have been found. For some assays here: Tags and fused reporters may be left off the sequences shown.
